Like-named read-outs stand apart in the source and are kept apart here. Results are given in words; binding and its absence hold for the method and conditions named. In cells and extracts the contact can be indirect. These calls come from enrichment with a bait or labelling near it, and not all partners need be listed. For part of these data: A no says only that the protein was not detected with the bait. Sequences can lack the tags named with a protein. Blank lines part the entries; values can stand above or below the molecule they belong to.
Columns and labels:
[1] = target: T1, (FLAG)3Nanog (UniProt Q80Z64); assay: affinity purification with mass spectrometry; FLAG-agarose purification of (FLAG)3Nanog from nuclear extract of E14Tg2a F-Nanog and RCNβH-B(t):F-Nanog ES cells, 150 U/ml Benzonase (4°C, 3 h), eluted with Flag peptide (0.2 mg/ml); parental cells as control; hits in two of three purifications
T1 sequence: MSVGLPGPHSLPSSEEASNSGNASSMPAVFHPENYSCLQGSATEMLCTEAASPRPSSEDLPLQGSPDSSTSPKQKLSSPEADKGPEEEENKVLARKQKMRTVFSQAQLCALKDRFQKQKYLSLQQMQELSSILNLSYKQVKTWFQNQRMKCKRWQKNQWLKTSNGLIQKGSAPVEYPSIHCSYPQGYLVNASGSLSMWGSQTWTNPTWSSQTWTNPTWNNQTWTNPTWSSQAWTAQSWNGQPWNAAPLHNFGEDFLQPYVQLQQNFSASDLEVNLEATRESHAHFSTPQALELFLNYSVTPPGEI

Sequences of proteins named here, by UniProt entry; tags and fusion partners are left off.
UniProt Q80U78: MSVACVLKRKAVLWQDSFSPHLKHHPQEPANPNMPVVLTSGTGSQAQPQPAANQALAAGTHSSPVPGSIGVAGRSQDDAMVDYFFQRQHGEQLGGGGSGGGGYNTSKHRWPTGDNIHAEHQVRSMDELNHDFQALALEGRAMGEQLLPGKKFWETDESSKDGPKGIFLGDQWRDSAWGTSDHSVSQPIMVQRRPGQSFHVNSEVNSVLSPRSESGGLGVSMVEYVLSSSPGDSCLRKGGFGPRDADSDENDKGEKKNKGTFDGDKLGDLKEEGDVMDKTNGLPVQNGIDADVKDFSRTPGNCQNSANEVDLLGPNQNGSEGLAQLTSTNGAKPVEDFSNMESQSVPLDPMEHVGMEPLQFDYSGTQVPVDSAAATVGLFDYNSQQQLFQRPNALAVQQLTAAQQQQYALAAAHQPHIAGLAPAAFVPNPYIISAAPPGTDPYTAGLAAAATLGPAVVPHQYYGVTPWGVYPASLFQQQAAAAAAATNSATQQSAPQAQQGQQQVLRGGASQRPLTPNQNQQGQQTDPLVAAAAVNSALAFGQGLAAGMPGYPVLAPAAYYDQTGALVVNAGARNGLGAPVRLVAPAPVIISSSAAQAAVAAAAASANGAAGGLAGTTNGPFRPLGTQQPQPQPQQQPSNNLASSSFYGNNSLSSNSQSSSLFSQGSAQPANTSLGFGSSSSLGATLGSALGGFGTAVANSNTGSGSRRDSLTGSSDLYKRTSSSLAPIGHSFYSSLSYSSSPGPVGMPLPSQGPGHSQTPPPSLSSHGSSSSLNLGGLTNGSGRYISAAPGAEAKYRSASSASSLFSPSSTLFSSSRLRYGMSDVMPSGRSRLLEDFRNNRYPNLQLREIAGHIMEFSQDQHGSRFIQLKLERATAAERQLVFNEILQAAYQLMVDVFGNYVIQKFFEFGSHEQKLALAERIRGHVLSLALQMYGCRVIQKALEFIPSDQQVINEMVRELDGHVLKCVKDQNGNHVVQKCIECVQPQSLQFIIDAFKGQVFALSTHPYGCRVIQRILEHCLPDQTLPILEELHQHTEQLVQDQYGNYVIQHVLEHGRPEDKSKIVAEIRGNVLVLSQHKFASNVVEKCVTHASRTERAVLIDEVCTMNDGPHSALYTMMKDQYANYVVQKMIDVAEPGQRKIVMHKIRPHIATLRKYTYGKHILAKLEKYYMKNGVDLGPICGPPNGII
UniProt P43267: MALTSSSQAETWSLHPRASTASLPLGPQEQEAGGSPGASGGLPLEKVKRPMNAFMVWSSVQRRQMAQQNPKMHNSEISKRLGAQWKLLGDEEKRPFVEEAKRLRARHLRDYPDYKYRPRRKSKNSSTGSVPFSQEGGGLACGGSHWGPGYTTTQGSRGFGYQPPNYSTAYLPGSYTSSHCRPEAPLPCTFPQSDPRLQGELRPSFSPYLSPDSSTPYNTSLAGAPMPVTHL
UniProt Q7M6Y2: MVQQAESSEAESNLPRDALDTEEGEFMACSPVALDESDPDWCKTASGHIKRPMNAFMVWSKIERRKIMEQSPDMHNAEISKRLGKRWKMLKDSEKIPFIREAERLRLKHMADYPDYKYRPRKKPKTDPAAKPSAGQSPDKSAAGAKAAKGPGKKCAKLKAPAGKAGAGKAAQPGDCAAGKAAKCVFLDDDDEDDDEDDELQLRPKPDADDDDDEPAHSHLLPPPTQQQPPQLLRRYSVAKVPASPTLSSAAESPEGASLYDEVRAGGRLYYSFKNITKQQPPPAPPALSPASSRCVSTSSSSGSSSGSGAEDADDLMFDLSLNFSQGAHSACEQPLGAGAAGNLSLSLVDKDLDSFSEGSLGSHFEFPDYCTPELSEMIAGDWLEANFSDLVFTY
UniProt P48432: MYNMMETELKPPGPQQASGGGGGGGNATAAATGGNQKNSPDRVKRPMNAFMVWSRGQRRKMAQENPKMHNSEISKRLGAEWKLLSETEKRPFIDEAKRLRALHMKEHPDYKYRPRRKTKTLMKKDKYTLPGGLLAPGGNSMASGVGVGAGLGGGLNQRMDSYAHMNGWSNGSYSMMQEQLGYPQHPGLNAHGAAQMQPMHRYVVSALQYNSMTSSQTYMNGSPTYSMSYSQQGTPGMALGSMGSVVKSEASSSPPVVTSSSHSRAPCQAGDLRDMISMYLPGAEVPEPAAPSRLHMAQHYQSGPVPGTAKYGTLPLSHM
UniProt Q06831: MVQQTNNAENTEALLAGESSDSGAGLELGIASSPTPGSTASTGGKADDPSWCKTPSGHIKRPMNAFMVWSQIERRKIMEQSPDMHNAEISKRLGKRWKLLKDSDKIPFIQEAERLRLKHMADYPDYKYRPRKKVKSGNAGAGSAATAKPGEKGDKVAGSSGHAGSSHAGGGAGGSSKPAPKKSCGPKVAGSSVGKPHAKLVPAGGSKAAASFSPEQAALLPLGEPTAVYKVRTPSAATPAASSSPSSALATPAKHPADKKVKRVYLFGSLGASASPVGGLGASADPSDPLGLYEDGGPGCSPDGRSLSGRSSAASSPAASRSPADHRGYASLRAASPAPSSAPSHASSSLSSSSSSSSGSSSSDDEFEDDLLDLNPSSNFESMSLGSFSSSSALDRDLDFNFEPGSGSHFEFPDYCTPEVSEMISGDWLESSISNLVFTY
UniProt Q80U58: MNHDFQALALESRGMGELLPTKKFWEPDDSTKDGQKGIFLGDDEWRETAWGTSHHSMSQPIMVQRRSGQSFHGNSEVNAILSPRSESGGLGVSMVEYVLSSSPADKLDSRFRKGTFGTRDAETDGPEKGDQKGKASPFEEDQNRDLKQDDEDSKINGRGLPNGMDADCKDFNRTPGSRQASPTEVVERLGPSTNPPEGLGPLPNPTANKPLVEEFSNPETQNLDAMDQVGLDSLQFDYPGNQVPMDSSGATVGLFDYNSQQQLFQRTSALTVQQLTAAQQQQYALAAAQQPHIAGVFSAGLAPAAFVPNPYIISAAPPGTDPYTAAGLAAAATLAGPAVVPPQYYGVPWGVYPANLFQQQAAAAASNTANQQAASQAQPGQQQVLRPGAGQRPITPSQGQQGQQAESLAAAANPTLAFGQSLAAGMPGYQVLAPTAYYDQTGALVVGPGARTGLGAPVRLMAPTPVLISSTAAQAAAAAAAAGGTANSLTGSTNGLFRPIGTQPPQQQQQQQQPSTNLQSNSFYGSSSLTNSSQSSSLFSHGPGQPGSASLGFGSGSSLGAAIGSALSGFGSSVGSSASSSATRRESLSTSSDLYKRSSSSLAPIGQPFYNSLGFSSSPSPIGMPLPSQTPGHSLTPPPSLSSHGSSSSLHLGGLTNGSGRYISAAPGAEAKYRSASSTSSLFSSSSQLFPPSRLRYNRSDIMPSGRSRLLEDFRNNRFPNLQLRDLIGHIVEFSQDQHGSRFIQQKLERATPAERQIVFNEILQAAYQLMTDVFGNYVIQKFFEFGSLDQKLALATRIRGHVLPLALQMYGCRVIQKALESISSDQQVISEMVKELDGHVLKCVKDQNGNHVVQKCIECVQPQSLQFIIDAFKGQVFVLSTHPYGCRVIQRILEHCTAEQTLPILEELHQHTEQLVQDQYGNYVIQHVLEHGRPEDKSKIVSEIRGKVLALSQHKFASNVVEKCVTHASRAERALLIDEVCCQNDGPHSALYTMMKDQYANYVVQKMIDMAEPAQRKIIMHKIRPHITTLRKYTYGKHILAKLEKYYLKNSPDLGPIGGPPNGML
UniProt Q3URK3: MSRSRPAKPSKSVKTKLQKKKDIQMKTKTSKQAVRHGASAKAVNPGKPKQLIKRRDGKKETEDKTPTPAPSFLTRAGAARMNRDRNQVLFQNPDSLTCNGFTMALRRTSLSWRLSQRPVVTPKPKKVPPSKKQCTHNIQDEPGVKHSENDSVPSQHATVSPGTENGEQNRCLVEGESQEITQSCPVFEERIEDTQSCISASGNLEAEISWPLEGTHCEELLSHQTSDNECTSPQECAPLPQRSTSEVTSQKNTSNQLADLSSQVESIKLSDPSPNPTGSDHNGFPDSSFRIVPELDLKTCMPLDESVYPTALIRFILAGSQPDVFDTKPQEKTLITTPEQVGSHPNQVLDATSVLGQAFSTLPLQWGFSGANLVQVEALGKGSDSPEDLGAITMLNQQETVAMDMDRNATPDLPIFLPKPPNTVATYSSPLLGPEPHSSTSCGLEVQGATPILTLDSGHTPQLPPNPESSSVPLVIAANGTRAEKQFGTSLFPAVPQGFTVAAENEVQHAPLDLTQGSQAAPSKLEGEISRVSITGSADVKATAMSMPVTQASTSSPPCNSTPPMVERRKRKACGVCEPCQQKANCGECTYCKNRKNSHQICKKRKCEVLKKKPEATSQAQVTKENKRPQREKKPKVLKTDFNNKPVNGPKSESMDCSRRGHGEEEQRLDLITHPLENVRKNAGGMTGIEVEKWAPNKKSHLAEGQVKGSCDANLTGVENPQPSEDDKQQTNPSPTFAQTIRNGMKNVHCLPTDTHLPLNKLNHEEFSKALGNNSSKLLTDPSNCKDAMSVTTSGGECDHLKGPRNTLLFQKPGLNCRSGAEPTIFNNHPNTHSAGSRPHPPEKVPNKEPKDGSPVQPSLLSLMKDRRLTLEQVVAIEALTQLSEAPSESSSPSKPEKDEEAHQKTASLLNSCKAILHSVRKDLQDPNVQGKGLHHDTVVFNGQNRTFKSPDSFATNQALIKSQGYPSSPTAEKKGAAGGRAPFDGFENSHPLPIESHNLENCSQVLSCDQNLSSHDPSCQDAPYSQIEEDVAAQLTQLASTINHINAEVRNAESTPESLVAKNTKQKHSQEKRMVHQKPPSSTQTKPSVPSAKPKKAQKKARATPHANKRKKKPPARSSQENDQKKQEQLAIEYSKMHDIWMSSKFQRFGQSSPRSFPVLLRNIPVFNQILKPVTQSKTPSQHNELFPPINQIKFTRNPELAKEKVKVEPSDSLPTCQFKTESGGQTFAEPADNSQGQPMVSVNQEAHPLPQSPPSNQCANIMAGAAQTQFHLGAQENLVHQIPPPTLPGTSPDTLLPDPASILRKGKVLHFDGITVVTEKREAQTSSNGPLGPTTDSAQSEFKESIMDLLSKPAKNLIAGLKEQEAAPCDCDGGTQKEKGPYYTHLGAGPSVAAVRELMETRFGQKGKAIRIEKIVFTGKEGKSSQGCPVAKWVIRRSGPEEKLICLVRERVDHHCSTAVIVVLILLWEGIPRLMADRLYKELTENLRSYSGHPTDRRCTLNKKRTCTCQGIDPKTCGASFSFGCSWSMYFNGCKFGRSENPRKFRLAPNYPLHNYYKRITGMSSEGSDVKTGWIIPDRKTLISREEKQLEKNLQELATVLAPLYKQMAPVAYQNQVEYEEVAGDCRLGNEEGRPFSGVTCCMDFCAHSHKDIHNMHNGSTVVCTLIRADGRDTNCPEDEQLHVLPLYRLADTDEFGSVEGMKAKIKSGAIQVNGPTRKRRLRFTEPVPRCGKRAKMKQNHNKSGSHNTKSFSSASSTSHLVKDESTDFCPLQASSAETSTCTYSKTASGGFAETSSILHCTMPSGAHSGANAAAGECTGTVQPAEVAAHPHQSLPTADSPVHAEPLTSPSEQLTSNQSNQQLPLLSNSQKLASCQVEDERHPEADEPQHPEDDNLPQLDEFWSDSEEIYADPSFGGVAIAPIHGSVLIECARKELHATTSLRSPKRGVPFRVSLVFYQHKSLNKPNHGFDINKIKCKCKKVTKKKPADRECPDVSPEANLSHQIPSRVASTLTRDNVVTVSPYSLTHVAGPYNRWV

[2] = target: T1, (FLAG)3Nanog; assay: as above; remark: listed apart in the source

binding [1]: binds
Molecule: Pum1 (from UniProt Q80U78 1-1189)

binding [1]: no binding
Molecule: Sox15 (from UniProt P43267 1-231)

binding [1]: no binding
Molecule: Sox11 (from UniProt Q7M6Y2 1-395)

binding [1]: binds
Molecule: Sox2 (endogenous) (from UniProt P48432 1-319)

binding [1]: no binding
Molecule: Sox4 (from UniProt Q06831 1-440)

binding [1]: binds
Molecule: Pum2 (from UniProt Q80U58 1-1066)

binding [1]: binds
Molecule: TET-1 (from UniProt Q3URK3 1-2039)

binding [2]: binds
B1: Zfp326 (protein, UniProt O88291 1-580)
chain: MDFEDDYVHSTCRGAYQDFNGMDRDYGPGSYGGLDRDYGHGSYGGQRSMDSYLNQSYGMDNHSGGGGGSRFGPYESYDSRSSLGGRDLYRSGYGFNEPEQTRFGGSYGGRFESSYRNSLDSFGGRNQGGSSWEAPYSRSKLRPGFMEDRGRENYSSYSSFSSPHMKPAPVGSRGRGTPAYPESTFGSRSYDAFGGPSTGRGRGRGHMGDFGSFHRPGIIVDYQNKPANVTIATARGIKRKMMQIFIKPGGAFIKKPKLAKPMDKMNLSKSPTKTDPKNEEEEKRRIEARREKQRRRREKNSEKYGDGYRMAFTCSFCKFRTFEEKDIELHLESSSHQETLDHIQKQTKFDKVVMEFLHECMVNKFKKASIRKQQTLNHPEAYKIIEKDIMEGVTADDHMMKVETVHCSACSVYIPALHSSVQLHLKSPDHSKGKQAYKEQIKRESVLTATSILNNPIVKARYERFVKGENPFEIQDHPQDQQIEGDEEDEEKIDEPIEEEEEEEEEEEEEGEEAGSVEEEGDVEGEEGTAEAAAAGEADAVGEAEGAGEAEEAEEEEEEEGTQEFAAQACATEQCEHRQM

binding [2]: binds
B2: Ilf3 (protein, UniProt Q9Z1X4 1-898)
chain: MRPMRIFVNDDRHVMAKHSSVYPTQEELEAVQNMVSHTERALKAVSDWIDEQEKGNSELSEAENMDTPPDDESKEGAGEQKAEHMTRTLRGVMRVGLVAKGLLLKGDLDLELVLLCKEKPTTALLDKVADNLAIQLTTVTEDKYEILQSVDDAAIVIKNTKEPPLSLTIHLTSPVVREEMEKVLAGETLSVNDPPDVLDRQKCLAALASLRHAKWFQARANGLKSCVIVIRVLRDLCTRVPTWGPLRGWPLELLCEKSIGTANRPMGAGEALRRVLECLASGIVMPDGSGIYDPCEKEATDAIGHLDRQQREDITQSAQHALRLAAFGQLHKVLGMDPLPSKMPKKPKNENPVDYTVQIPPSTTYAITPMKRPMEEDGEEKSPSKKKKKIQKKEEKADPPQAMNALMRLNQLKPGLQYKLISQTGPVHAPIFTMSVEVDGSNFEASGPSKKTAKLHVAVKVLQDMGLPTGAEGRDSSKGEDSAEESDGKPAIVAPPPVVEAVSNPSSVFPSDATTEQGPILTKHGKNPVMELNEKRRGLKYELISETGGSHDKRFVMEVEVDGQKFQGAGSNKKVAKAYAALAALEKLFPDTPLALEANKKKRTPVPVRGGPKFAAKPHNPGFGMGGPMHNEVPPPPNIRGRGRGGNIRGRGRGRGFGGANHGGGYMNAGAGYGSYGYSSNSATAGYSQFYSNGGHSGNAGGGGSGGGGGSSSYSSYYQGDSYNSPVPPKHAGKKPLHGGQQKASYSSGYQSHQGQQQPYNQSQYSSYGTPQGKQKGYGHGQGSYSSYSNSYNSPGGGGGSDYSYDSKFNYSGSGGRSGGNSYGSSGSSSYNTGSHGGYGTGSGGSSSYQGKQGGYSSQSNYSSPGSSQSYSGPASSYQSSQGGYSRNTEHSMNYQYR

binding [2]: binds
B3: Zfp609 (protein, UniProt Q8BZ47 1-1413)
chain: MSLSSGACGGKGVDANPVETYDSGDEWDIGVGNLIIDLDADLEKDQQKLEMSGSKEVGIPAPNAVATLPDNIKFVTPVPGPQGKEGKSKSKRSKSGKDASKPTPGTSLFSPSEGAASKKEVQGRAGDGASAGGLVAAVAPKGSEKAAKASRSVAGSKKEKENSSSKGKKERSEGVGTCSEKDPGVLQPVPLGGRGSQYDGSAGMDTGTVEPLGSIAIEPGAALNPLGTKPEPEEGENECRPLKKVKSEKMESPVSTPAVLPLHLLVPVVNNDISSPCEQIMVRTRSVGVNTCDVALATEPECLGPCEPGTSVNLEGIVWQETEDGMLVVNVTWRNKTYVGTLLDCTRHDWAPPRFCDSPTSDLEMRNGRGRGKRMRPSSNTPVSEAAAASDSKGTSSSSKTRAGANSKGRRGSQNSSEHRPPASSTSEDVKASPSSANKRKSKPLSDMELNSSSEDSKGSKRVRTNSMGSATGPLPGTKVEPTLVDRNCPSPVLIDCPHPNCNKKYKHINGLKYHQAHAHTDDDSKPEADGDSEYGEEPALHADLSCNGAPVPQKGSLSPARSATPKVRLVEPHSPSPSSKFSTKGLCKKKLSGEGDTDPGALSNDGSDDGPSVMDETSNDAFDSLERKCMEKEKCKKPSSLKSEKIPSKSLKSARPIAPAIPPQQIYTFQTATFTAASPGSSSGLTTTVVQAMPNSPQLKPIQPKPTVMGEPFTVNPALTPAKDKKKKDKKKKDSSKELESPLTPGKVCRAEEGKSPFRDAAGDGIKVESLLNGSSESHQSRLASIKAEADKIYSFTDNAPSPSIGGSSRLDSTTPTQPLTPLHVVTQNGAEASSVKTNSPAYSDISDAGEDGEGKVDSAKSKDPEQLVKEGAKKTLFPPQPQSKDSPYYQGFESYYSPGYAQSSPGTLTSSSQAGMEGQPLKTKKDEEPESVEGKVKNDVCEEKKPELSNSSQQPSVIQQRPNMYMQSLYYNQYAYVPPYGYSDQSYHSHLLSTNTAYRQQYEEQQKRQSLEQQQQQQRGLDKKTEMGLKEREASLKEEWKQKPSIPPTLTKAPSLTDLVKSGPGKAKEPGTDPAKSVIIPKLDDSSKLPSQPPEGLKGKLGEASHLGKEASEAKTGTECGRQAEVDPILWYRQETESRMWTYVYPAKYSDIKSEDDRWKEERDRKLKEDRSRSKDSVPKEDGKESTSSDCKLPPSEESRLGSKEPRPSVHVPVSSPLTQHQSYIPYMHGYSYSQSYDPNHPSYRGMPAVMMQNYPGSYLPSSYSFSPYGSKVSGGEDADKARASPSVSCKASSESKALDILQQHASHYKSKSPTISDKNSQERDRGGCGVVGGGGSCGSVAGAGGTDRSADRPRTSPSQRLMSTHHHHHHLGYSLLPAQYNLPYAAGLSSTAIVASQQGSTPSLYPPPRR

binding [2]: binds
B4: Rbm9 (protein, UniProt Q8BP71 1-449)
chain: MAEGGQAQQQPPQLGPGAAARGMKRESEVELPVPGAGADGPEPGLSKRPRTEEAADGGMQNEPLTPGYHGFPARDGQGNQEPTTTPDAMVQPFTTIPFPPPPQNGIPTEYGVPHTQDYAGQTSEHNLTLYGSTQPHGEQSSNSPSNQNGSLTQTEGGAQTDGQQSQTQSSENSESKSTPKRLHVSNIPFRFRDPDLRQMFGQFGKILDVEIIFNERGSKGFGFVTFENSADADRAREKLHGTVVEGRKIEVNNATARVMTNKKMVTPYANGWKLSPVVGAVYGPELYAASSFQADVSLGNEAAVPLSGRGGINTYIPLISLPLVPGFPYPTAATTAAAFRGAHLRGRGRTVYGAVRAVPPTAIPAYPGVVYQDGFYGADLYGGYAAYRYAQPATATAATAAAAAAAAYSDGYGRVYTADPYHALAPAASYGVGAVASLYRGGYSRFAPY

binding [2]: binds
B5: Arid5b (protein, UniProt Q8BM75 1-1188)
chain: MEPNSLQWVGSPCGLHGPYIFYKAFQFHLEGKPRILSLGDFFFVRCTPKDPICIAELQLLWEERTSRQLLSSSKLYFLPEDTPQGRNSDHGEDEVIAVSEKVIVKLEDLVKWAHSDFSKWRCGLRATPVKTEAFGRNGQKEALLRYRQSTLNSGLNFKDVLKEKADLGEDEEETNVIVLSYPQYCRYRSMLKRIQDKPSSILTDQFALALGGIAVVSRNPQILYCRDTFDHPTLIENESVCDEFAPNLKGRPRKKKTCPQRRDSFSGSKDPNNNCDGKVISKVKGEARSALTKPKNNHNNCKKTSNEEKPKLSIGEECRADEQAFLVALYKYMKERKTPIERIPYLGFKQINLWTMFQAAQKLGGYETITARRQWKHIYDELGGNPGSTSAATCTRRHYERLILPYERFIKGEEDKPLPPIKPRKQENNTQENENKTKVSGNKRIKQEMAKNKKEKENTPKPQDTSEVSSEQRKEEETLNHKSAPEPLPAPEVKGKPEGHKDLGARAPVSRADPEKANETDQGSNSEKEAEEMGDKGLAPLLPSPPLPPEKDSAPTPGAGKQPLASPSTQMDSKQEAKPCCFTESPEKDLQGAPFSSFSATKPPLTSQNEAEEEQLPATANYIANCTVKVDQLGSDDIHTALKQTPKVLVVQSFDMFKDKDLTGPMNENHGLNYTPLLYSRGNPGIMSPLAKKKLLSQVSGASLSSSYPYGSPPPLISKKKLIAREDLCSGLSQGHHSQSSDHTAVSRPSVIQHVQSFKNKASEDRKSINDIFKHDKLSRSDAHRCGFSKHQLGSLADSYILKQETQEGKDKLLEKRAVSHAHVPSFLADFYSSPHLHSLYRHTEHHLHNEQSSKYAARDAYQESENGAFLSHKHPEKIHVNYLASLHLQDKKVAAAEASTDDQPTDLSLPKNPHKLTSKVLGLAHSTSGSQEIKGASQFQVVSNQSRDCHPKACRVSPMTMSGPKKYPESLARSGKPHQVRLENFRKMEGMVHPILHRKMSPQNIGAARPIKRSLEDLDLVIAGKKARAVSPLDPAKEASGKEKASEQESEGNKGAYGGHSGAASEGHKLPLSTPIFPGLYSGSLCNSGLNSRLPAGYSHSLQYLKNQTVLSPLMQPLAFHSLVMQRGIFTSPTNSQQLYRHLAAATPVGSSYGDLLHNSIYPLAGINPQAAFPSSQLSSVHPSTKL

From PMC3746198
